# Measurements taken from the supplement of paper PMC10403144.
# Some of the results follow.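 Rule for the calls: active = mitochondrial OCR inhibition above 30% at 1 uM; inactive = 30% or less.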 Most values come without repeats; read them as rough.
# System: Toxoplasma gondii RH tachyzoites
# Test: inhibition of mitochondrial O2 consumption rate (% inhibition (relative to pre-injection OCR and atovaquone/antimycin A control)); higher = stronger ETC inhibition
# Conditions: 1 µM; injection port (sequential injection order): A
row,SMILES,inhibition of mitochondrial O2 consumption rate
1,CC(C)(C)n1nc(-c2ccccc2)c2c(N)ncnc21,inactive: -3.44
2,COC(=O)c1c(NC(=O)c2c(F)c(F)c(F)c(F)c2F)sc2c1CCCCC2,inactive: -7.11
3,CC(Oc1cccc(Cl)c1)C(=O)Nc1ccc2oc(-c3ccncc3)nc2c1 (stereo not drawn),inactive: 2.77
4,COc1cccc(OCC(=O)c2ccc(Br)cc2)c1,inactive: 1.6
5,O=C1COCc2ccc(Br)cc2N1Cc1ccc(C(F)(F)F)cc1,inactive: -8.64
6,COc1ccc(OC(C)C(=O)Nc2ccc(Cl)cc2C)cc1 (stereo not drawn),inactive: 5.64
7,CS(=O)(=O)Cc1nc2ccccc2oc1=O,inactive: -3.01
8,CNC(=O)C1Cc2ccccc2N1C(=O)Cc1ccc(F)cc1 (stereo not drawn),inactive: -1.12
9,COC(=O)c1ccc(F)cc1NS(=O)(=O)c1cccc(-c2cnn(Cc3ccccc3)c2)c1,inactive: 1.67
10,CC(C)n1ncc2c(C(=O)NCC(c3cccs3)N3CCOCC3)cc(-c3ccccc3)nc21 (stereo not drawn),inactive: -9.77
11,Cc1ccc(NC(=O)CC2COc3ccccc3O2)cc1Cl (stereo not drawn),inactive: -7.29
12,O=C(NC1CCCCC1)N1CCN(Cc2ccc3c(c2)OCO3)CC1,inactive: 1.43
13,CCCS(=O)(=O)N1CCC(CO)(Cc2ccccc2C(F)(F)F)CC1,inactive: -12.4
14,O=C(c1[nH]nc2c1CCCC2)N1CCN(Cc2ccc3c(c2)OCO3)CC1,inactive: -4.39
15,CCOC(=O)c1cc(-c2csc(Nc3c(C)cc(C)cc3C)n2)on1,inactive: -5.39

# Same assay, conditions: 1 µM; injection port (sequential injection order): B
row,SMILES,inhibition of mitochondrial O2 consumption rate
1,Cc1cc(Nc2ccncc2)n2nc(C)c(-c3ccccc3Cl)c2n1,inactive: -5.44
2,CCN(CC)S(=O)(=O)c1ccc(Cl)c(C(=O)Nc2ccc3nc(C)sc3c2)c1,inactive: -8
3,COC(=O)C1=C(C)NC(C)=C(C(=O)OC(C)C)C1c1cccc2nonc12 (stereo not drawn),inactive: 9.02
4,CC(C)(C)c1cc(C(=O)Nc2cccnc2)cc(C(=O)Nc2cccnc2)c1,inactive: 3.73
5,CC1CS(=O)(=O)CCN1/N=C/c1ccc([N+](=O)[O-])o1 (stereo not drawn),inactive: -8.04
6,c1ccc(Oc2ccc(-c3cc(CN4CCOCC4)[nH]n3)cc2)cc1,inactive: -10.5
7,CO[C@H]1/C=C/O[C@@]2(C)Oc3c(C)c(O)c4c(O)c(/c(=C/NN5CCN(C)CC5)c(O)c4c3C2=O)=N\C(=O)/C(C)=C\C=C/[C@H](C)[C@H](O)[C@@H](C)[C@@H](O)[C@@H](C)[C@H](OC(C)=O)[C@@H]1C,inactive: -3.21
8,CC(C)c1ncc(-c2ccncc2)c([C@H]2CC[C@H](CNC(=O)c3cccnc3)CC2)n1,inactive: -3.59
9,Cc1ccc(NC(=O)c2cc(S(=O)(=O)NC(C)(C)C)ccc2C)nc1,inactive: 6.3
10,COc1ccc(C2=NN(C3CCCCCC3)C(=O)[C@@H]3CC=CC[C@H]23)cc1OCCCCOc1ccc(-c2nn[nH]n2)cc1,inactive: 3.19
11,Cc1ccccc1C(=O)N1N=C(Nc2ccccc2)SC1(C)C,inactive: -7.46
12,CC(C)(C)n1nc(Cc2cccc3ccccc23)c2c(N)ncnc21,inactive: -12.9
13,CNC1C(OC2C(OC3C(O)C(O)C(NC(=N)N)C(O)C3NC(=N)N)OC(C)C2(O)C=O)OC(CO)C(O)C1O (stereo not drawn),inactive: -4.8

# Copied from the list:
# inhibition of mitochondrial O2 consumption rate, `CNC1C(OC2C(OC3C(O)C(O)C(NC(=N)N)C(O)C3NC(=N)N)OC(C)C2(O)C=O)OC(CO)C(O)C1O` (stereo not drawn) reads inactive: -4.8
# inhibition of mitochondrial O2 consumption rate, `c1ccc(Oc2ccc(-c3cc(CN4CCOCC4)[nH]n3)cc2)cc1` reads inactive: -10.5
